Results on six molecules are retold here after article PMC7078486.

The chains behind the UniProt entries cited, without tags or fusion partners. Where a name states a change or a piece, a line headed by the entry shows the natural chain unless it says otherwise.
UniProt Q8I2D9: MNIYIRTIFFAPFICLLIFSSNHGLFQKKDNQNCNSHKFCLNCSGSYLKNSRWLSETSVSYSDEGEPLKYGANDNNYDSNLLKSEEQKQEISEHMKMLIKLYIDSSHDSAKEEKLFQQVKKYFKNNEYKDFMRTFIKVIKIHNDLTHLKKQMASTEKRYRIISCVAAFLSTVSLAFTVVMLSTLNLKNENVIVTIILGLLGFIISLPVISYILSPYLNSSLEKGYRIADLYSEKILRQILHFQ
UniProt Q8IEJ0: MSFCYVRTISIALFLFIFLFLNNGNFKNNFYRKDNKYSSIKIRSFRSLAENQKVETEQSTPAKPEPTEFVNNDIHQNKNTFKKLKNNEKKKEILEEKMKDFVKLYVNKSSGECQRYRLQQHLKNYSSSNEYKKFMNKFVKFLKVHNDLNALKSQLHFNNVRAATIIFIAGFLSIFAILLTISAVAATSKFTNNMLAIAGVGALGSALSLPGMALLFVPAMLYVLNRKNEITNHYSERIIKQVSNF
UniProt Q6V0W7: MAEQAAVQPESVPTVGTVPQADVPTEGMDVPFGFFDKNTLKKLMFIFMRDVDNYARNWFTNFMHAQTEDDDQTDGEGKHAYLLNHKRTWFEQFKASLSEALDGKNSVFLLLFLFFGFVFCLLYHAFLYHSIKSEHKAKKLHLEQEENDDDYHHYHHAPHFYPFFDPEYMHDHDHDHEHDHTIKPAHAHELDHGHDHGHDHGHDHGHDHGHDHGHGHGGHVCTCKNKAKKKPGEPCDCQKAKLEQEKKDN

Experiment in all cases: affinity purification with mass spectrometry; GFP-tagged bait captured on GFP-Trap agarose beads from infected RBCs solubilised in IP buffer (1% Triton X-100, 150 mM NaCl, 50 mM Tris, 8 mM EDTA), precleared with protein A agarose, 16 h at 4°C, 5 washes; eluate digested with trypsin, LC-MS/MS (Q Exactive)
Experiment [1] addresses T1, PF3D7_1353100-GFP (Plasmodium falciparum 3D7) (UniProt Q8IDG9).
T1 sequence: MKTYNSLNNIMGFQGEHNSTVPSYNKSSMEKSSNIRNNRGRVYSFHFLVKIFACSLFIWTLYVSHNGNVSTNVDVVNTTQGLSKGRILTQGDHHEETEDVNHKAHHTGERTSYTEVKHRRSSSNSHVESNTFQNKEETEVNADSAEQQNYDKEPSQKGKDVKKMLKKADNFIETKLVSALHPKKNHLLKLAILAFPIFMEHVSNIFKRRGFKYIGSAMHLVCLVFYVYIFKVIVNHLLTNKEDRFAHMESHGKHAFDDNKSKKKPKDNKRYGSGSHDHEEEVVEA

Experiment [2] concerns the target GFP-tagged GEXP10/CX3CL1-binding protein 1 (CBP1) (Plasmodium falciparum 3D7) (UniProt Q8I2D9).
Experiment [3] concerns the target GFP-tagged gametocyte exported protein 7 (GEXP07)/CX3CL1-binding protein 2 (CBP2) (Plasmodium falciparum 3D7) (UniProt Q8IEJ0).
Experiment [4] has as its target GFP-tagged membrane-associated histidine-rich protein 1 (MAHRP1) (Plasmodium falciparum 3D7) (UniProt Q6V0W7).
Experiment [5] has as its target GFP-tagged PfEMP1 trafficking protein 6 (PTP6) (Plasmodium falciparum 3D7).

Results are given in words; binding and its absence hold for the method and conditions named. In cells and extracts the contact can be indirect. Here binding means that the protein was enriched with, or labelled near, the bait; the list need not be complete. For part of these data: Tags and fused reporters may be left off the sequences shown.

As for “membrane-associated histidine-rich protein 2 (MAHRP2)”, in experiment [1], the binding entry is listed as “binds”.
With “membrane-associated histidine-rich protein 1 (MAHRP1) (from UniProt Q6V0W7 1-249)”, the binding result in experiment [2] and in experiment [3] was “binds” in each case.
In the case of “GEXP10/CX3CL1-binding protein 1 (CBP1) (from UniProt Q8I2D9)”, the binding entry in experiment [4] and in experiment [3] was “binds” throughout.
With “gametocyte exported protein 7 (GEXP07)/CX3CL1-binding protein 2 (CBP2) (from UniProt Q8IEJ0)”, the binding entry in experiment [4] and in experiment [2] was “binds” in each case.

B1: PF3D7_0702500 (protein, UniProt Q8IC42 1-253)
chain: MAYPLLEDDLRSIRVAFGTCPGNSTMQFGERFWQGFFFGVIIFFVLSKYIRSYKKRKGMRILKSSSVTKGRLYRGTVFDEDDNVDGHHKKTKAHGLFEEIEKRNGFDLNDDTTNSNNLGEGTHSAVHNLDGQKESQLYKNNSDGSTENHLSGSNSDGRNSSQHSVGSHSVSSQEHKKEHSTHDLPAGRNYSLGNLSTGTTSQGSTSSRHYSLGGQPSSSGRSFSGSKYNTSNLASSSTTESSVSGLNTNEAHV
For the molecule B1, the binding entry in experiment [5] is “binds”.

B2: PF3D7_1002000 (protein, UniProt Q8IK16 1-469)
chain: MFICIYFFYNNIVIESTPINVIIKKKKKMTNLRYGNTFNFICNKYDEVIQHGCINLDNMHKNNKKGNKKKYINIFPIMKVLVICLLLSLVNKSNDNTYNEDIFQKDKENCGGLRYKRLLAEPIFGFDVMYDLFKDNFLEQIGYNDAQKNELKVSMKSFFQSSNSQEYTYSRREDNIHSISKSNVTNVKSVKFEEPQDEKNLITIEEIKADNNDSKEKKNEITNINVDEKKDLESVISSEEEKTPTSNNIRKKRKTKRSHKNKDSNTSYDNIELNKILKDDNIEVNKTLKEDNIEVNNTLEEDNIEVNNTLKEDNIEVEKLIDENRELIKKESIYKNKLKEDNIEVEKLIDENRELIKKESIYKNKLKEDNIEVEDLIDENRKLIKKESIYKNKLEEEPVEKGIKRKNYLFLILEKAKEIPPGVIVGLFSIFYVALGENRSSLILLIVIFILTVHTYLEVKRICRFLNID
On to B2, for which the binding entry in experiment [5] is “binds”.
